Record: PubChem BioAssay AID743454 (Peter MacCallum Cancer Centre, 2014)
Purpose: 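Search for knock-downs that restore vorinostat killing in resistant colon cancer cells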 (primary screen). Cells: human HCT116-VR colon cancer cells, selected for vorinostat resistance. Reagent: siRNA pool against human genes, 40 nM siRNA pool. Time to read-out: vorinostat for 24 h, read-out about 72 h after transfection. Challenge: vorinostat at 2.5 µM final. Measurement: 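Two measures, CellTiter-Fluor viability and luminescent caspase 3/7 activity, each as fold change against same-plate mock wells, mean of duplicates, then screen-wide robust z-score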. Scale: viability robust z-score: higher = more viable cells than screen typical; caspase robust z-score: higher = more caspase 3/7 activity than screen typical. Active means: 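Hits are knock-downs in viability class RV1/RV2 or caspase class CA1/CA2, excluding ones that killed cells in the no-drug cell-count arm; hits then retested with single siRNAs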.
Shown is an unselected part of about 18,000 reagents. Of all reagents, 450 (2.5%) are marked active. 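Single biological run; no consistent viability z cut-off exists, so the class columns, not z-scores, define the calls.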 Reagent sequences are not shown.

target gene	viability hit class	caspase hit class	viability robust z-score	caspase robust z-score	Outcome
GMFB (glia maturation factor beta)	no change	no change	1.11	-0.83	inactive
OR6N1 (olfactory receptor family 6 subfamily N member 1)	no change	no change	-0.56	-0.54	inactive
SREK1 (splicing regulatory glutamic acid and lysine rich protein 1)	no change	no change	1.55	0.26	inactive
MUC4 (mucin 4, cell surface associated)	no change	no change	0.44	-0.6	inactive
KCNS1	no change	no change	0.49	-0.25	inactive
ADGRF5 (adhesion G protein-coupled receptor F5)	no change	no change	0.69	-0.3	inactive
OR4D2 (olfactory receptor family 4 subfamily D member 2)	no change	no change	-1.13	-0.53	inactive
GPS1 (G protein pathway suppressor 1)	no change	no change	-1.23	1.86	inactive
CCT3 (chaperonin containing TCP1 subunit 3)	no change	no change	-1.78	2.09	inactive
PTPN13 (protein tyrosine phosphatase non-receptor type 13)	no change	no change	-0.36	-0.76	inactive
TDRD12 (tudor domain containing 12)	no change	no change	-1.25	-0.56	inactive
TM6SF1 (transmembrane 6 superfamily member 1)	no change	no change	-0.84	-0.78	inactive
TMT1B (thiol methyltransferase 1B)	no change	no change	1.05	2.56	inactive
SH3TC2 (SH3 domain and tetratricopeptide repeats 2)	no change	no change	0.41	1.82	inactive
MRI1 (methylthioribose-1-phosphate isomerase 1)	no change	no change	0.48	-0.88	inactive
IRF3 (interferon regulatory factor 3)	no change	no change	1.31	-0.7	inactive
GNPTAB	no change	no change	0.24	-0.58	inactive
WWC2 (WW and C2 domain containing 2)	no change	no change	-0.46	-0.41	inactive
CARHSP1 (calcium regulated heat stable protein 1)	no change	no change	-0.34	-0.38	inactive
SFRP2 (secreted frizzled related protein 2)	no change	no change	-1.16	0.53	inactive
NIPSNAP1 (nipsnap homolog 1)	no change	no change	0.43	1.01	inactive
NIPBL (NIPBL cohesin loading factor)	no change	no change	0.79	-0.73	inactive
SLC25A51	no change	no change	0.89	0.08	inactive
PTHLH (parathyroid hormone like hormone)	no change	no change	-0.23	-0.26	inactive
GRK5 (G protein-coupled receptor kinase 5)	no change	no change	-0.96	0.03	inactive
TBL1Y (transducin beta like 1 Y-linked)	no change	no change	-0.9	-0.03	inactive
GDE1 (glycerophosphodiester phosphodiesterase 1)	no change	no change	-0.81	-0.94	inactive
DPF2 (double PHD fingers 2)	no change	no change	-0.27	-0.94	inactive
JUN (Jun proto-oncogene, AP-1 transcription factor subunit)	no change	no change	0.64	0.6	inactive
TRIM42 (tripartite motif containing 42)	no change	no change	0.9	0.99	inactive
GGTLC2 (gamma-glutamyltransferase light chain 2)	no change	no change	-1.24	1.38	inactive
SCD5 (stearoyl-CoA desaturase 5)	no change	no change	0.4	-0.26	inactive
EGR1 (early growth response 1)	no change	no change	0.78	1.12	inactive
CASQ2 (calsequestrin 2)	no change	no change	0.22	0.24	inactive
WDR26 (WD repeat domain 26)	no change	no change	-1.14	0.52	inactive
HBM (hemoglobin subunit mu)	no change	no change	-1.21	1.44	inactive
SPCS3 (signal peptidase complex subunit 3)	no change	no change	-0.14	-0.29	inactive
PPP1R1A (protein phosphatase 1 regulatory inhibitor subunit 1A)	no change	no change	-0.54	0.4	inactive
HAPLN3 (hyaluronan and proteoglycan link protein 3)	no change	no change	0.3	-0.76	inactive
PLD5 (phospholipase D family member 5)	no change	no change	0.45	-0.01	inactive
ADAM28 (ADAM metallopeptidase domain 28)	no change	no change	0.24	0.13	inactive
SERPINC1 (serpin family C member 1)	no change	no change	0.52	-0.91	inactive
C6orf62 (chromosome 6 open reading frame 62)	no change	no change	1.13	-0.6	inactive
PHF5A (PHD finger protein 5A)	no change	no change	-1.79	0.92	inactive
CTRB1 (chymotrypsinogen B1)	no change	no change	-1.33	-0.08	inactive
ZBTB44 (zinc finger and BTB domain containing 44)	no change	no change	2.16	0.06	inactive
BTC (betacellulin)	no change	no change	-0.16	4.43	inactive
HSD3B1	no change	no change	-0.14	-0.79	inactive
B4GAT1 (beta-1,4-glucuronyltransferase 1)	no change	no change	-0.22	1.37	inactive
DELEC1 (deleted in esophageal cancer 1)	no change	no change	0.57	0.68	inactive
INHBB (inhibin subunit beta B)	no change	no change	1.06	0.2	inactive
TMEM260 (transmembrane protein 260)	no change	no change	1.52	-0.66	inactive
SH3GLB1 (SH3 domain containing GRB2 like, endophilin B1)	no change	no change	-0.44	1.28	inactive
HDIP1 (HDAC and MIER1 interacting protein 1)	no change	no change	0.76	1.5	inactive
CDAN1 (codanin 1)	no change	no change	1.9	-0.21	inactive
BAZ2B (bromodomain adjacent to zinc finger domain 2B)	no change	no change	0.6	0.05	inactive
MMAB (metabolism of cobalamin associated B)	no change	no change	-0.01	-1	inactive

6 entries from above, reduced to “viability robust z-score”:
GRK5 (G protein-coupled receptor kinase 5): -0.96
TBL1Y (transducin beta like 1 Y-linked): -0.9
GDE1 (glycerophosphodiester phosphodiesterase 1): -0.81
DPF2 (double PHD fingers 2): -0.27
JUN (Jun proto-oncogene, AP-1 transcription factor subunit): 0.64
TRIM42 (tripartite motif containing 42): 0.9
